Assay results from the supplement of paper PMC3334620.
Over roughly 33,000 sequences, “E-score (-0.5 to 0.5)” has its median near -0.015; the highest 2% begin near 0.3. The list shows a part of the results.

Each sequence was assayed against T1, Abf1 (UniProt P14164) (assay: PBM E-score (8-mer binding enrichment) (E-score (-0.5 to 0.5)); higher = stronger / more preferred TF binding). Settings: protein concentration: 200 nM; construct: GST-full length.
T1 sequence: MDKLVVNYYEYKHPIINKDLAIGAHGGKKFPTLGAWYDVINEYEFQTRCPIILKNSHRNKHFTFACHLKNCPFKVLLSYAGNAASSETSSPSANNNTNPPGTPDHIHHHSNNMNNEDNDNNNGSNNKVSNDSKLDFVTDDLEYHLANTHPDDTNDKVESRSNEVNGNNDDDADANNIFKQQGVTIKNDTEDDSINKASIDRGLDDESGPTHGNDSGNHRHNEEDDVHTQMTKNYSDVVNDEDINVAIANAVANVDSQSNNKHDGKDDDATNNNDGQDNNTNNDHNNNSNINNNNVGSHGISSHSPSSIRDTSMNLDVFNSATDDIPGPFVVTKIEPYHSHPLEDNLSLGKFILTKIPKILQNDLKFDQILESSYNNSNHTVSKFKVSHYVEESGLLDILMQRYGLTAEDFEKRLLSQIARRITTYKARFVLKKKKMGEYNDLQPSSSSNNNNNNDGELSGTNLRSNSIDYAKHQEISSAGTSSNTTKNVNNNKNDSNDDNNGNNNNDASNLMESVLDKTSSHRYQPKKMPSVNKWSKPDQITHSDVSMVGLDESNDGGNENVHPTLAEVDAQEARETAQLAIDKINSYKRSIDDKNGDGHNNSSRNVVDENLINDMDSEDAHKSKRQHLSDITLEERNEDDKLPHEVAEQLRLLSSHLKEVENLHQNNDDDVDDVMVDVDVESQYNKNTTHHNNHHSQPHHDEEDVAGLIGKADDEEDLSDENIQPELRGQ
Procedure: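 Universal 'all 10-mer' protein binding microarrays (Agilent AMADID 015681) probed with GST-tagged S. cerevisiae TFs (full-length or DBD) made by in vitro transcription/translation (PURExpress), about 100-200 nM. Bound TF was detected with fluorescent anti-GST. Each ungapped 8-mer (which stands for itself and its reverse complement) is scored by the PBM enrichment score (E-score), a modified Wilcoxon-Mann-Whitney statistic from -0.5 to +0.5, computed with the Universal PBM Analysis Suite. Scale: above 0.35 generally sequence-specific binding.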

In order of rising “PBM E-score” value:
1. AGCCCCCC  -0.459
2. AACCCCCC  -0.421
3. CATAGCCC  -0.332
4. CTCCCTCC  -0.329
5. CTGACCCC  -0.328
6. AGTCCCTC  -0.31
7. ATGCCCCC  -0.306
8. CAACTGCG  -0.3
9. CCGGAAGG  -0.297
10. CCTCAACC  -0.283
11. CTTTAACC  -0.275
12. CCACTCCC  -0.27
13. CTGGCCGC  -0.251
14. CCCGAGAG  -0.242
15. CCTGAGTA  -0.238
16. CGGAGCCA  -0.236
17. CTCCCGCA  -0.227
18. CAGTCTCG  -0.227
19. CTCAGTAA  -0.226
20. GAGGGCAC  -0.218
21. GGAAGGAA  -0.216
22. GAACAGCC  -0.195
23. GGCGAAAC  -0.192
24. AATCCTCT  -0.186
25. CTCTCGGC  -0.184
26. ATACAGAG  -0.18
27. CCAAGCTA  -0.17
28. AACCATAC  -0.166
29. AACACAAG  -0.163
30. AAGACTGA  -0.159
31. CAGGTAGG  -0.155
32. CCTATGCG  -0.155
33. ATTTGCGC  -0.15
34. ATCCCGCA  -0.147
35. CACTACGC  -0.146
36. CATCAAGG  -0.137
37. CGCAGAGC  -0.134
38. CCGATGCA  -0.131
39. TAACCATA  -0.128
40. GCTTAGGA  -0.124
41. GGGCACAC  -0.123
42. CTCAGGCA  -0.121
43. ACGTTTAC  -0.121
44. ACACCATA  -0.12
45. AAGCCTGA  -0.117
46. AGGCCCTA  -0.113
47. AGCTAGCC  -0.102
48. ACCCACCC  -0.102
49. CACAGGCC  -0.0982
50. ATTCCCGA  -0.0981
51. AAAATCCC  -0.0966
52. GCGTTTGA  -0.0947
53. CTGGTCCA  -0.0942
54. GACCACAA  -0.0916
55. CCCATCTA  -0.0904
56. GGTTGGGA  -0.0893
57. ACATACAG  -0.0843
58. AAAGAGGG  -0.0837
59. ACTAGTAA  -0.0823
60. ATCTATAC  -0.0821
61. CTGCCATA  -0.0819
62. CCTGTGCC  -0.0805
63. ATACCGCA  -0.0798
64. GAGCGGGA  -0.0765
65. ACATTCGG  -0.0724
66. GCGGGCAA  -0.0707
67. CCGAAAAC  -0.0692
68. ACTTGTGA  -0.0634
69. GAGACTAC  -0.0609
70. ACACTTAT  -0.0575
71. CGCGGTCA  -0.0568
72. GAGAAAGA  -0.0528
73. AGCGCTAC  -0.0511
74. CAGGCGGC  -0.0499
75. AGAGTCAC  -0.0475
76. CTAACTGC  -0.046
77. ATACAGGG  -0.0394
78. GACTGAAA  -0.037
79. GAGCAAAA  -0.0367
80. ACTTACAG  -0.0364
81. AGATACTA  -0.0355
82. AGTGTTAT  -0.035
83. GGTAGTAC  -0.0337
84. AAGTGGGA  -0.0291
85. CTTGGTGA  -0.0225
86. TCTAGGAA  -0.0176
87. GATCCCAC  -0.0169
88. CCCAACTA  -0.0157
89. AAGGTATG  -0.0138
90. ACGTTGAG  -0.013
91. AGAAGAAG  -0.0116
92. GAACCTAC  -0.00821
93. CTGGAATC  -0.00545
94. ATTCGAGA  -0.00241
95. ATAGCTGC  -0.00161
96. CACTTGGA  -3e-05
97. GGTGCCCA  0.00407
98. TGGATCCA  0.00427
99. GGTTGGCA  0.00596
100. AAGCCAAA  0.00729
101. CCAGCTAG  0.0103
102. ATCCAGGA  0.0113
103. ATTATAAG  0.0118
104. GCTGACAA  0.0133
105. GCCCGAAC  0.0158
106. GCCGCAAC  0.0158
107. AAATGCTG  0.0213
108. CTTGCAAC  0.0224
109. CTACGTGA  0.028
110. CTCCGTGA  0.0295
111. ATAAACTG  0.0304
112. CCGGATCA  0.039
113. CTCTACTA  0.0396
114. CACTTCAG  0.0421
115. GTTGGCGA  0.0423
116. CATATCGA  0.0442
117. CCAATTAC  0.0466
118. GTACTAAC  0.048
119. AACACAGC  0.0485
120. CATCTGGC  0.0534
121. ACCCTTTA  0.0562
122. AATCTTAG  0.0566
123. GAATAAGA  0.0625
124. AGCGATGG  0.0661
125. ATCAACGC  0.0823
126. AGAAAGCA  0.0861
127. ATACGCGA  0.0862
128. AGTACGTG  0.0865
129. ATGATCCA  0.0885
130. ACTCCGTC  0.0889
131. AATCTAAC  0.0902
132. CTCAACAC  0.0911
133. CGGCTTGC  0.0935
134. AATTCGCC  0.0956
135. TGAAAACA  0.0957
136. ACATCGGG  0.0963
137. GTCGCTGA  0.104
138. GCATCTTA  0.11
139. GTACTAGA  0.111
140. AATTAAGC  0.111
141. TAGAATAA  0.114
142. CATTTCGA  0.133
143. CGTTAACC  0.135
144. AATATTGT  0.146
145. TGACTACA  0.148
146. ACCGTTGA  0.148
147. AGCATATC  0.151
148. CGGGAACA  0.153
149. ACGGCAAA  0.156
150. GTCCTTGA  0.158
151. TCATTGAA  0.164
152. GTAGATGA  0.165
153. ACCTACAG  0.172
154. AGCCATCA  0.175
155. GACATCAA  0.178
156. CCATTACA  0.188
157. CGAAAACC  0.197
158. AAATTATA  0.197
159. AACTATGC  0.203
160. AAAAGCGA  0.206
161. ACTTAGTA  0.216
162. CAATATCG  0.218
163. CATTCGTC  0.222
164. AATGGTAG  0.225
165. GATAGCGA  0.226
166. CTAAGTCA  0.254
167. AATATTAT  0.256
168. ACTACGTA  0.27
169. AATACGAT  0.276
170. ACCGTACT  0.286
171. AACCGTCG  0.298
172. CATCGTGC  0.314
